This assay is described as follows: qHTS Assay for Lipid Storage Modulators in Drosophila S3 Cells.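 For cell number change: cells counted by Cell Tracker Red CMTPX staining in the red channel.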 To be noted: BODIPY lipid droplet fluorescence, 18-24 h; for cell number change: measured here: cell count max response, cells fed with added oleic acid. The method, boiled down:
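Drosophila S3 cells got compounds at several concentrations plus oleic acid (400 uM solution). Laser-scanning cytometry with 488 nm excitation read lipid droplets at 500-530 nm and cells at 575-640 nm. Percent activity was relative to 20 uM Triacsin C.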

[1] abbreviates: measured here: lipid fluorescence (Fed channel) AC50, cells fed with added oleic acid.
[2] abbreviates: measured here: cell number channel AC50, cells fed with added oleic acid.

This is one part of the list. These are further read-outs of the screen, such as a control signal, another cell line or another target. No call is given for them. The list favours compounds with an active or inconclusive main result. Potencies come from curve fits of mixed quality, noted in brackets.

As to `CCOC(=O)c1sc2nc(C)nc(NCc3ccccc3OC)c2c1C`, the AC50 under setting [1] is 1.16 µM [rising, partial curve].
In the case of `COc1cccc(CNC(=O)C2CCN(Cc3cnn(-c4ccccc4)c3-n3cccc3)CC2)c1`, the cell number change was -24.5%. The AC50 under setting [1] is 36.6 µM [falling, partial curve, poor fit].
Regarding `COc1ccc(N2CCN(CC(=O)c3c(C)n(C)c4ccc(OC)cc34)CC2)cc1`, the cell number change came to 0.875%. Under setting [1], the AC50 is 0.651 µM [rising, single point].
As for `Cn1c(SCC(=O)N2CCc3ccccc32)nnc1C1CC1`, the concentration at half-maximal activity (AC50) under setting [1] was 29.1 µM [falling, single point].
On to `CCOc1cc(N2CCOCC2)c(OCC)cc1NC(=O)COC(=O)c1ccc(Cl)cc1N`, for which the cell number change was -16.5%. In addition, the AC50 under setting [1] is 0.58 µM [rising, single point].
`O=C(N/N=C\c1ccccn1)C1COc2cc3ccccc3cc2O1` (stereo not drawn): the cell number change was -11%. Moreover, the concentration at half-maximal activity (AC50) under setting [1] was 23.1 µM [falling, single point].
Regarding `CCOc1ccc(S(=O)(=O)Nc2ccc(S(=O)(=O)N3CCCC3)cc2)cc1`, the AC50 by setting is: under setting [2], 6.51 µM [falling, single point]; under setting [1], 6.51 µM [falling, single point].
As to `CCC1Nc2ncnc(N3CCOCC3)c2N(Cc2ccc(C)cc2)C1=O` (stereo not drawn), the cell number change was -20.7%.
`O=C(NCc1cccs1)C(=O)NCC1OCCCN1S(=O)(=O)c1cc(F)ccc1F` (stereo not drawn): the cell number change turned out to be 2.09%.
Turning to `Cc1ccc(C(=O)NC(=S)Nc2ccc(N3CCN(C(=O)c4ccco4)CC3)cc2)cc1`, the cell number change was -50.8%. Besides, under setting [2], the half-maximal activity concentration (AC50) is 16.4 µM [falling, single point]. For the same compound, under setting [1], the AC50 is 8.2 µM [falling, partial curve].
`N/C(=N\OC(=O)c1ccc(Br)cc1)c1ccncc1`: the cell number change amounted to 12.6%.
With `C[C@@H]1CN(CCCn2c3ccccc3c3ccccc32)C[C@H](C)N1`, the cell number change was found to be 14.3%. The AC50 under setting [1] is 29.1 µM [rising, single point].
For the compound `O=C(N/N=C/c1ccc(O)c([N+](=O)[O-])c1)c1ccncc1`, the AC50 under setting [1] was 0.58 µM [rising, single point].
Turning to `Cc1ccc(CN2CCN(Cc3ccc(O)cc3)CC2CCO)o1` (stereo not drawn), the cell number change was -1.69%. Under setting [1], the AC50 is 0.651 µM [falling, single point].
On to `Cc1ccc(C)c(Cn2c(=O)n(-c3ccc(CC(=O)NCc4ccco4)cc3)c(=O)c3sccc32)c1`, for which the cell number change is 17.2%.
As to `CCOc1ccc(NC(=O)COC(=O)CSCC(=O)Nc2ccc(C)cc2C)cc1`, the cell number change came out at 38.4%. Also, the half-maximal activity concentration (AC50) under setting [2] was 10.3 µM [rising, partial curve]. Moreover, the AC50 under setting [1] is 13 µM [rising, single point].
Regarding `CCOC(=O)C(C)Sc1nc2c(cnn2-c2ccc(F)cc2)c(=O)[nH]1` (stereo not drawn), the cell number change turned out to be 18.5%.
As for `CCOC(=O)Cc1cc(=O)[nH]c(/N=C(\N)Nc2ccc(C)cc2C)n1`, the cell number change is -4.51%. Under setting [2], the AC50 is 0.206 µM [rising, full curve, poor fit].
As for `O=C(Nc1ccc(F)cc1)C1CCCN(S(=O)(=O)c2cccc3nonc23)C1` (stereo not drawn), the cell number change turned out to be 102%. Further, under setting [2], the AC50 is 18.4 µM [rising, partial curve].
For `Cc1cc(NC(=O)Nc2cccc(C(F)(F)F)c2)no1`, the cell number change is -34.8%. Also, the AC50 under setting [2] was 16.4 µM [falling, single point].
Turning to `COc1cc(OC)cc(C(=O)N[C@H](C(=O)Nc2nc3ccccc3[nH]2)C(C)C)c1`, the cell number change stood at 67.1%. The concentration at half-maximal activity (AC50) under setting [2] was 18.4 µM [rising, single point]. Further, the AC50 under setting [1] is 29.1 µM [rising, partial curve].
Consider `CCCCC(=O)Nc1cc(Cl)ccc1C(=O)O`, for which the cell number change amounted to 154%.
As for `O=C(CSc1ncn[nH]1)Nc1ccc2c(c1)CCC2`, the cell number change is 9.04%. Moreover, under setting [1], the half-maximal activity concentration (AC50) was 6.51 µM [rising, partial curve, poor fit].
As for `CCn1c(Cl)c(C=O)s/c1=N\S(=O)(=O)c1ccccc1`, the cell number change is -53.5%. Under setting [2], the AC50 was 3.66 µM [falling, full curve]. For the same compound, under setting [1], the AC50 was 5.17 µM [falling, full curve].
For the compound `Cc1ccc(C)c(CSc2ncccc2C(=O)O)c1`, the cell number change is 1.79%. In addition, the AC50 under setting [1] was 6.51 µM [rising, single point].
For `O=C(CC(c1ccccc1)c1ccccc1)NCCO`, the cell number change is -3.3%. The AC50 under setting [1] was 23.1 µM [falling, partial curve].
As to `COc1ccc(NC(=O)Cn2c(=O)sc3ccccc32)cc1`, the cell number change is -0.397%. Moreover, the AC50 under setting [1] was 8.2 µM [rising, partial curve, poor fit].
Consider `CC(=O)c1c(C)[nH]c(C(=O)Nc2cccnc2)c1C`, for which the cell number change is -0.883%. The AC50 under setting [1] was 0.651 µM [falling, full curve].
Consider `CCC(C)N(C(=O)COC(=O)CSc1ccc([N+](=O)[O-])cc1)C1CCS(=O)(=O)C1` (stereo not drawn), for which the cell number change is -9.35%. The AC50 under setting [1] was 6.51 µM [rising, single point].
As for `Cc1cc(C)c2nc(SCC(=O)Nc3cc(C)on3)c(C)cc2c1`, the cell number change was found to be 12.4%. Also, the AC50 under setting [1] is 0.206 µM [rising, single point].
With `CC(C)Cc1nc2oc3c(=O)[nH]cnc3c2c2c1CCC2`, the cell number change was -3.51%.
Regarding `Fc1ccc(-c2ccnc3nc(N4CCN(c5ccccc5)CC4)nn23)cc1`, the cell number change was -20.6%. The AC50 under setting [1] is 23.1 µM [falling, single point].
On to `N/C(=N\c1nc2c(c(=O)[nH]1)CCC2)Nc1cccc(Cl)c1`, for which the cell number change is -21.3%. In addition, under setting [1], the AC50 is 1.84 µM [rising, partial curve].
With `O=C(CN1C(=O)c2ccccc2S1(=O)=O)c1ccccc1Cl`, the cell number change was -31.9%. Besides, the AC50 under setting [2] is 23.1 µM [falling, single point].
As for `CC(=O)N1N=C(c2ccccc2O)OC1(C)CC(=O)Nc1ccccc1` (stereo not drawn), the AC50 under setting [1] is 29.1 µM [rising, single point].
In the case of `CS(=O)(=O)c1nc(-c2ccco2)cc(C(F)(F)F)n1`, the cell number change was -92.6%. For the same compound, the concentration at half-maximal activity (AC50) under setting [2] is 16.4 µM [falling, partial curve]. Moreover, the AC50 under setting [1] was 16.4 µM [falling, partial curve].
On to `CCCCN1C(=O)/C(=C/C=C2\Oc3ccccc3N2CC)SC1=S`, for which the cell number change is -18%. Also, the AC50 under setting [2] is 2.59 µM [falling, single point]. Moreover, the AC50 under setting [1] is 3.66 µM [falling, full curve].
With `O=C(Nc1ccccc1[N+](=O)[O-])C1=C(O)CCn2c1nc1ccccc12`, the cell number change worked out at 66.7%. The AC50 under setting [2] is 23.1 µM [rising, single point]. The AC50 under setting [1] is 5.8 µM [rising, full curve].
For `COc1ccc2nc(Cl)c(/C=N/Nc3ccccn3)cc2c1`, the cell number change was -34%. The half-maximal activity concentration (AC50) under setting [2] is 23.1 µM [falling, single point].
Take `O=C(OCCN1CCCC1=O)c1cncc(Br)c1`: the cell number change turned out to be 25.4%. Further, the concentration at half-maximal activity (AC50) under setting [1] is 0.00731 µM [rising, full curve, poor fit].
On to `CCc1nc(-c2ccc(C)nc2OC)no1`, for which the cell number change is 15.8%.
Consider `O=C1CNC(=S)N1C1CCCCCC1`, for which the cell number change was found to be 35.5%. In addition, under setting [2], the AC50 is 13 µM [rising, partial curve, poor fit].
As to `O=C(CN1C(=O)/C(=C/c2ccco2)SC1=S)NC1CCS(=O)(=O)C1` (stereo not drawn), the cell number change came to 42.2%. For the same compound, the AC50 under setting [2] was 0.0206 µM [rising, full curve, poor fit]. For the same compound, under setting [1], the AC50 is 8.2 µM [rising, partial curve].
`Cc1ccc(C(=O)O/N=C2\CC3CCC2(C)C3(C)C)cc1` (stereo not drawn): the cell number change was -35.1%. In addition, the AC50 under setting [2] is 29.1 µM [falling, single point]. In addition, the AC50 under setting [1] is 29.1 µM [falling, single point].
Turning to `C/C(CC(=O)Nc1cccc(C(F)(F)F)c1)=N\NC(=O)C1CCCCC1`, the cell number change is -4.02%. For the same compound, the AC50 under setting [2] is 6.51 µM [falling, partial curve, poor fit].
As for `O=C(/C=C/c1ccccc1)NC(=S)Nc1ccc(CN2CCOCC2)cc1`, the cell number change came to 2.22%. Moreover, under setting [1], the AC50 is 16.4 µM [rising, partial curve, poor fit].
`Cc1cccc(NC(=O)Nc2ccc(C)cc2Br)c1`: the cell number change was -38.2%. Moreover, the AC50 under setting [2] is 16.4 µM [falling, single point].
For `C=CCSc1nnc(CCc2ccccc2)n1N`, the cell number change is -4.18%. In addition, under setting [1], the AC50 is 1.84 µM [falling, single point].
As for `Fc1ccccc1CSc1nnc(-c2cccs2)o1`, the cell number change came to 102%. The AC50 under setting [2] was 18.4 µM [rising, partial curve]. For the same compound, the AC50 under setting [1] is 18.4 µM [rising, single point].
On to `CCSC1=N/C(=C\c2ccc(OC)cc2)C(=O)N1`, for which the cell number change is 23.6%. The AC50 under setting [2] was 0.366 µM [rising, partial curve, poor fit].
Turning to `CCN(CC)S(=O)(=O)c1ccc(N2CCCC2)c(NC(=O)c2c(-c3ccccc3)noc2C)c1`, the cell number change came to 14.1%. For the same compound, the AC50 under setting [1] was 5.17 µM [falling, single point].
`NC(=Nc1ccc(Cl)cc1)c1ccccc1`: the cell number change was -49.9%. Moreover, under setting [2], the AC50 was 8.2 µM [falling, partial curve].
As to `Cc1cccc(NC(=O)C2CC(=O)n3cnnc3S2)c1` (stereo not drawn), the AC50 under setting [1] is 11.6 µM [falling, partial curve].
Turning to `N#CC1=C(SCC(=O)Nc2cccc3cccnc23)NC(=O)C(C#N)C12CCCCC2` (stereo not drawn), the cell number change was -22.6%. The half-maximal activity concentration (AC50) under setting [1] is 0.366 µM [rising, full curve, poor fit].
As to `O=C(NCC(c1ccco1)N1CCCCC1)c1ccc(NS(=O)(=O)c2ccc(F)cc2)cc1` (stereo not drawn), the cell number change was -1.11%. Besides, the AC50 under setting [1] is 4.61 µM [falling, partial curve, poor fit].
Take `O=C(NCc1cccc(F)c1)C1CCC(=O)N(C2CCCC2)C1` (stereo not drawn): under setting [1], the half-maximal activity concentration (AC50) was 2.31 µM [rising, partial curve].
With `COc1ccc(C2CC(c3cccs3)=NN2C(=O)CSc2nc(=O)n3ccc(C)cc3n2)cc1` (stereo not drawn), the cell number change turned out to be 39.8%. For the same compound, under setting [2], the AC50 is 1.03 µM [rising, full curve].
`CC(C)(C)CC(=O)Nc1ccccc1N1CCN(c2ccc(F)cc2)CC1`: the cell number change was -5.28%.
Consider `Cc1cccc(OCCN2C(=O)c3ccccc3C2=O)c1`, for which the cell number change was 27.3%. Further, under setting [1], the AC50 was 10 µM [rising, partial curve, poor fit].
In the case of `O=C(COc1ccccc1)Nc1ccccc1F`, the cell number change amounted to 9.12%.
Take `CCN(CC)C(=O)C1=C(C)Nc2nnnn2C1c1cccnc1` (stereo not drawn): the cell number change was -10.1%. In addition, the AC50 under setting [1] is 0.58 µM [falling, full curve, poor fit].
In the case of `COc1cc(C2C(C(=O)c3cccs3)=C(O)C(=O)N2c2cc(C)on2)ccc1O` (stereo not drawn), the cell number change is 6.44%. Further, the AC50 under setting [1] was 0.164 µM [falling, full curve].

The record behind these values is PubChem BioAssay AID2685 (National Center for Advancing Translational Sciences (NCATS), 2010).
